Assay results: patent US20230116446A1
No constants are given. Whether binding was seen depends on the method and setting. Binding can be weak; no strength is given.

Experiments:
[1] = target: His6 tagged soluble monomeric extracellular domain (ECD) of hSIRPα v2 (human); experiment: SPR sensorgrams (Biacore), multi-cycle and single-cycle kinetics
[2] = target: His6 tagged soluble monomeric extracellular domain (ECD) of hSIRPα v2 (human); experiment: SPR (Biacore T200); antibody captured on a CM5 chip by immobilized goat anti-human Fc polyclonal antibody; monomeric hSIRPα v2 ECD injected as analyte; multi-cycle with regeneration (panel D) and single-cycle without regeneration (panel H); axes are time (s) and RU according to the legend

binding [1]: binds
binding [2]: binds
B1: parental anti-hSIRPα #24 IgG antibody (antibody, V domains shown)
VH: EVQLVESGGGLVKPGGSLRLSCAASGFTFSSYVMSWVRQTPGKGLEWVATISSGGTYTYYPDSVKGRFTLSRDNAKNSLYLQMNSLRAEDTAVYYCASQLTGSEFDYWGQGTTVTVSS
VL: DIVLTQSPASLAVSLGERATISCRASESVDLYGTSFMHWYQQKPGQPPKLLIYRASNLESGVPDRFSGSGSRTDFTLTINPLQAEDVATYYCHQSSDELPWTFGGGTKVEIKR
